Binding data for 2 substances are collected here from paper doi:10.1101/2024.10.12.618001.

Chains of the proteins cited; added tags and fusions are not shown. Residues count along the entry.
UniProt P25445, residues 26-173: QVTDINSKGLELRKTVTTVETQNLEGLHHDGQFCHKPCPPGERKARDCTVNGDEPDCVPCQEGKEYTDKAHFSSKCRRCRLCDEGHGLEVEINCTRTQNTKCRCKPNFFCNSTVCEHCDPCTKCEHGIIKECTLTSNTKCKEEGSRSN
UniProt P48023, residues 130-281: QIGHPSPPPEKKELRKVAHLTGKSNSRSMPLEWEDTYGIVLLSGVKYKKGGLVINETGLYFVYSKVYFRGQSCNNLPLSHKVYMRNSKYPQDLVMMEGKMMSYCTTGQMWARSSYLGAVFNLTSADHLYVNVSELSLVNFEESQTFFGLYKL

In the assay the target is CD95-His receptor protein (Sino Biological) (UniProt P25445). The experiment in a line: native gel or EMSA. A general note: Mobility shift assays separate free from complexed probe on a gel.

No constants are given. Whether binding was seen depends on the method and setting. Some results given as binding are weak or reduced against the parent protein; the word gives no strength.

For the substance “soluble CD95L (Enzo Life Sciences) (from UniProt P48023 130-281) (ligand)”, the binding entry is given as “binds”.
To “CD95-His receptor protein (Sino Biological) (from UniProt P25445 26-173)” belongs “binds”.
